Source: PubChem BioAssay AID504444 (National Center for Advancing Translational Sciences (NCATS), 2011)
The whole screen tested about 360,000 compounds, of which about 7,500 (2.1%) were called active. The inconclusive results got no clear call from the source; some entries with a clear call stand among them for comparison. Calls come from the whole dose curve; as a rule, active = well fitted inhibition curve with a large enough effect; inconclusive = small, poorly fitted or top-dose-only effect, or effect the other way; inactive = flat fitted curve, though single readings scatter. Potencies of inconclusive entries are doubtful fits and often do not repeat.

experiment: Nrf2 qHTS screen for inhibitors; conditions: A549 ARE-Fluc reporter, luciferase luminescence, 18-24 h; series mostly up to 46 µM; note: nearly all actives have a fitted effect of over 60% in size
Procedure, shortened: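 A549 ARE_Fluc cells (5000/well, 5% FBS OPTI-MEM) pre-incubated 2 h, then treated with compounds 18-24 h at 37C/5% CO2 in concentration-response. CellTiter-Fluor viability read first; BugLite luciferase luminescence after 15 min at room temperature gives Nrf2 activity.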
Potency is the fitted concentration of half-maximal effect.

SMILES | Potency
CCOc1ccccc1CNC(=O)Cn1ccc2cc(S(=O)(=O)N3CCC(C)CC3)ccc21 | inconclusive: 29.1 µM [falling, single point]
COc1ccc(C(=O)N/N=C/c2ccc(OC)c(COc3ccc(F)cc3F)c2)cc1 | inconclusive: 9.2 µM [falling, partial curve]
CC(=C/c1ccco1)/C=N/NC(=O)CSc1nnc(SCc2ccc(C)cc2)s1 | inconclusive: 16.4 µM [falling, partial curve, poor fit]
CN(C)S(=O)(=O)c1cccc(N2C(=O)CC3(CCCCC3)CC2=O)c1 | inconclusive: 6.51 µM [falling, full curve, poor fit]
Cn1c(SCC(=O)NCc2ccc3c(c2)OCO3)nnc1-c1c[nH]c2ccccc12 | inconclusive: 23.1 µM [falling, single point]
CC(C)(Oc1ccc(Cl)cc1)C(=O)N/N=C/c1cn[nH]c1-c1ccccc1 | inconclusive: 18.4 µM [falling, partial curve, poor fit]
COc1ccc2c(c1)cc(CNc1ccc(OC)c(OC)c1)c(=O)n2CC(=O)Nc1ccc(F)cc1 | inconclusive: 16.4 µM [falling, partial curve, poor fit]
NC(=O)c1ccsc1NC(=O)COC(=O)c1ccc(Cl)c(N)c1 | inactive
CCOC(=O)c1c(C)[nH]c(C)c1C(=O)Cn1nnc(-c2ccccc2C)n1 | active: 13 µM
COc1ccc(-c2ccc3c(=O)cc(-c4ccsc4)oc3c2)cn1 | inconclusive: 20.6 µM [falling, single point]
CCOC(=O)N1CCN(C(=O)CN(c2ccc(OCC)cc2)S(C)(=O)=O)CC1 | inactive
Cc1c(C(=O)Nc2ccc(F)c(F)c2)oc2ccc(S(=O)(=O)N3CCCCC3)cc12 | inconclusive: 14.6 µM [falling, partial curve, poor fit]
Cc1cn([C@H]2C=C[C@@H](CO)O2)c(=O)[nH]c1=O | inconclusive: 5.8 µM [falling, partial curve, poor fit]
CN(Cc1ccc(OC(F)F)cc1)C(=O)/C=C/c1ccc(S(=O)(=O)N2CCOCC2)cc1 | active: 23.1 µM
COc1cccc(NS(=O)(=O)c2ccc(-c3coc(C)n3)cc2)c1 | inactive
COc1ccc(N2CCN(C(=O)CCc3c(C)nc4c(-c5ccccc5)c(C)nn4c3C)CC2)cc1 | inactive
COc1cccc(-c2nn3c(-c4ccccn4)nnc3s2)c1 | inconclusive: 1.64 µM [falling, partial curve, poor fit]
COc1cccc(NC(=O)c2nn(-c3ccc(OC)cc3OC)c(=O)c3ccccc23)c1 | inconclusive: 1.84 µM [falling, partial curve, poor fit]
COc1ccc(NC(=O)CSc2nnc(Cc3cccs3)n2-c2ccc(C)cc2)cc1 | inactive
O=C(NC(=O)c1ccccc1O)c1ccc2c(c1)CCO2 | inconclusive: 29.1 µM [falling, single point]
CCOC(=O)c1[nH]c2ccc(OC)cc2c1NC(=S)N1CCN(c2cccc(C)c2C)CC1 | inconclusive: 25.9 µM [falling, partial curve, poor fit]
N#C/C(=C\c1ccccn1)c1ccccn1 | inconclusive: 29.1 µM [activator, single point]

SMILES | Potency
Cc1sc2nc(SCC(=O)NCc3ccco3)n(CCc3ccccc3)c(=O)c2c1C | inconclusive: 18.4 µM [falling, single point]
CCCCn1cnc2c(SCc3ccccc3)nc(N)nc21 | inactive
COc1ccc(C)cc1NC(=O)CSc1nnnn1C1CCCC1 | inactive
C=Cc1ccc(Cn2c(=O)n(C)c(=O)c3sccc32)cc1 | inconclusive: 16.4 µM [falling, partial curve, poor fit]
CCCCCn1cnc2sc(-c3ccccc3)cc2c1=O | inconclusive: 6.51 µM [activator, full curve, poor fit]
Cc1c(Cl)cccc1NC(=O)CC(c1cccs1)N1Cc2ccccc2C1=O (stereo unspecified) | inactive
CCOC(=O)c1cc(-c2ccccc2C)n(CC2CC(c3ccc(OC)cc3)=NO2)n1 (stereo unspecified) | inconclusive: 29.1 µM [falling, single point]
O=C1c2ccccc2C(=O)N1CCOc1ccccc1 | inconclusive: 2.91 µM [activator, full curve]
COc1ccc(C)cc1S(=O)(=O)N(CC(=O)NC1CCCC1)c1ccc(F)cc1 | inconclusive: 14.6 µM [falling, partial curve]
O=[N+]([O-])c1ccc(CNc2cccc(F)c2)s1 | inactive
COc1ccc(C2CC(c3ccccc3)=NN2C(=O)COC(=O)C2CC2)cc1 (stereo unspecified) | inconclusive: 6.51 µM [falling, single point]
COc1cc(CCC(=O)N2CCN(c3cccc(C)c3C)CC2)cc(OC)c1OC | inconclusive: 16.4 µM [falling, partial curve]
CCn1c(=NC(=O)c2ccc(S(=O)(=O)N3CCCCC3)cc2)sc2cccc(OC)c21 | inconclusive: 0.517 µM [falling, full curve, poor fit]
CN(C)S(=O)(=O)c1cc(NC(=O)[C@H](Cc2ccccc2)N2C(=O)c3ccccc3C2=O)ccc1Cl | inactive
CCc1nn2c(-c3ccccc3OC)ccnc2c1-c1ccc(F)cc1 | inconclusive: 16.4 µM [falling, partial curve, poor fit]
CCCn1nnnc1SCC(=O)N1CCCc2ccccc21 | inconclusive: 14.6 µM [activator, single point]
COc1cccc(C2=Nn3c(nnc3-c3cc(OC)ccc3OC)SC2)c1 | inactive
CC(C)c1ccc2c(c1)CCC1C(C)(CN)CCCC21C (stereo unspecified) | inactive
Cc1cccc(NC(=O)c2oc3c(c2C)-c2[nH]ncc2CC3)c1C | inconclusive: 29.1 µM [falling, single point]
CC(=O)c1cc(C(=O)c2ccccc2)sc1Nc1ccccc1 | inconclusive: 7.31 µM [activator, partial curve, poor fit]
COc1ccccc1-c1nnc2sc(-c3cnccn3)nn12 | inconclusive: 18.4 µM [falling, partial curve, poor fit]
O=[N+]([O-])c1ccc2nc(/C=C/c3ccc(Cl)cc3)[nH]c2c1 | inconclusive: 20.6 µM [falling, single point]

SMILES | Potency
CN(Cc1ccccc1)C(=O)c1ccc2c(c1)NC(=O)C(N1CCOCC1)S2 (stereo unspecified) | inconclusive: 23.1 µM [falling, partial curve, poor fit]
CCOc1ccccc1NC(=O)Cc1coc2c(C)c(C)ccc12 | inconclusive: 29.1 µM [falling, single point]
CCOc1ccccc1NC(=O)CN1C(=O)COc2ccc(S(=O)(=O)N3CCCCCC3)cc21 | inactive
Cc1cccc(N2CCN(C(=O)c3cc4c(=O)n(C)c5ccccc5c4n3C)CC2C)c1 (stereo unspecified) | inconclusive: 16.4 µM [falling, partial curve, poor fit]
Cc1sc(NC(=O)CN2CCCC2)nc1-c1ccc2c(c1)CCN2C(=O)c1cccc(F)c1 | active: 23.1 µM
C=CCNC(=O)c1oc2ccc(S(=O)(=O)N3CCCCC3)cc2c1C | inconclusive: 18.4 µM [activator, single point]
Cc1ccc(CN2C(=O)C(Cc3ccccc3)Nc3ncnc(N4CCN(c5ccccc5)CC4)c32)cc1 (stereo unspecified) | inactive
Cc1c(C(=O)Nc2ccc(-c3nnc4n3CCCCC4)cc2)oc2c1ccc1ccccc12 | active: 9.2 µM
O=C(COC(=O)/C=C/c1ccccc1[N+](=O)[O-])Nc1ccc(S(=O)(=O)N2CCOCC2)cc1 | inconclusive: 32.6 µM [activator, partial curve, poor fit]
Clc1ccc(-c2ccc(CNCc3ccccn3)o2)cc1 | inconclusive: 2.06 µM [activator, partial curve, poor fit]
CCCCNC(=O)C1CCN(C(=O)N2CC(C)Oc3ccc(Cl)cc32)CC1 (stereo unspecified) | inconclusive: 29.1 µM [falling, single point]
CC(=O)c1sc2nc(-c3ccco3)ccc2c1N | inconclusive: 20.6 µM [activator, partial curve]
COC(=O)CS(=O)(=O)c1cc([N+](=O)[O-])ccc1NC(=O)OC | inconclusive: 32.6 µM [falling, partial curve, poor fit]
CCCCOc1cccc(C(=O)Nc2ccc(S(=O)(=O)Nc3nnc(CC)s3)cc2)c1 | inactive
S=c1[nH]nc(-c2ccccc2)n1/N=C/c1ccc(Cl)cc1 | inconclusive: 32.6 µM [falling, single point]
CCC1CC=CC2C1C(=O)N(Cc1ccccc1)C2c1ccoc1 (stereo unspecified) | inconclusive: 16.4 µM [falling, partial curve]
COc1ccc(S(=O)(=O)c2c(O)cc(C)c(NS(=O)(=O)c3ccccc3)c2C)cc1 | inconclusive: 16.4 µM [activator, single point]
Cc1nnc(SCc2cccc(Cl)c2)n(N)c1=O | inconclusive: 3.66 µM [falling, partial curve, poor fit]
CCC(C)Sc1cccc(-c2nc3ccc(C)cn3c2NC2CCCCC2)c1 (stereo unspecified) | inconclusive: 29.1 µM [falling, single point]
O=C(NCCc1ccccc1)c1nccc2ccccc12 | inconclusive: 6.51 µM [activator, partial curve]
CCc1ccc(NC(=O)c2[nH]c(C)c(C(C)=O)c2C)cc1 | inconclusive: 20.6 µM [activator, single point]
CC(C)Nc1nc(NC(C)C)nc(SCC(N)=O)n1 | inactive

Part of the list above in order of SMILES length, largest number first:
SMILES | Potency
O=C(COC(=O)/C=C/c1ccccc1[N+](=O)[O-])Nc1ccc(S(=O)(=O)N2CCOCC2)cc1 | inconclusive: 32.6 µM [activator, partial curve, poor fit]
COc1ccc(S(=O)(=O)c2c(O)cc(C)c(NS(=O)(=O)c3ccccc3)c2C)cc1 | inconclusive: 16.4 µM [activator, single point]
CCOc1ccccc1NC(=O)Cc1coc2c(C)c(C)ccc12 | inconclusive: 29.1 µM [falling, single point]
CC(=O)c1sc2nc(-c3ccco3)ccc2c1N | inconclusive: 20.6 µM [activator, partial curve]
